Experimental data from PMC9599063.
No constants are given. Whether binding was seen depends on the method and setting. In cells and extracts the contact can be indirect. Some results given as binding are weak or reduced against the parent protein; the word gives no strength.

By UniProt entry, the sequences of proteins in these tests, tags left out.
UniProt P17931: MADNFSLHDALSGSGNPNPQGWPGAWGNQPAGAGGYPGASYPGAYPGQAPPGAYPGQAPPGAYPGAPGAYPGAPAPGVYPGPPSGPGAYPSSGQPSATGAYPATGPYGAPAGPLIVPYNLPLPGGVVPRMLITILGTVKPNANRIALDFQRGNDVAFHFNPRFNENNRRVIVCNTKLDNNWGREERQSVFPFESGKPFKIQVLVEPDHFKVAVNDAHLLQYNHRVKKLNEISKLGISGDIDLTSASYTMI

How the values were obtained:
[1] = target: T1, Melanoma cell adhesion molecule (MCAM, CD146, MUC18) (human (endogenous in A375 and 92.1)) (UniProt P43121); assay: cross-linking; A375 cells treated with 10 µg/mL galectin-3 or BSA for 30 min at 37 °C, 3 mM BS3 on ice 30 min, lysed in SDS-sample buffer without β-mercaptoethanol, MCAM immunoblot
T1 sequence (chain, N- and O-linked glycans (sites not told for this experiment)): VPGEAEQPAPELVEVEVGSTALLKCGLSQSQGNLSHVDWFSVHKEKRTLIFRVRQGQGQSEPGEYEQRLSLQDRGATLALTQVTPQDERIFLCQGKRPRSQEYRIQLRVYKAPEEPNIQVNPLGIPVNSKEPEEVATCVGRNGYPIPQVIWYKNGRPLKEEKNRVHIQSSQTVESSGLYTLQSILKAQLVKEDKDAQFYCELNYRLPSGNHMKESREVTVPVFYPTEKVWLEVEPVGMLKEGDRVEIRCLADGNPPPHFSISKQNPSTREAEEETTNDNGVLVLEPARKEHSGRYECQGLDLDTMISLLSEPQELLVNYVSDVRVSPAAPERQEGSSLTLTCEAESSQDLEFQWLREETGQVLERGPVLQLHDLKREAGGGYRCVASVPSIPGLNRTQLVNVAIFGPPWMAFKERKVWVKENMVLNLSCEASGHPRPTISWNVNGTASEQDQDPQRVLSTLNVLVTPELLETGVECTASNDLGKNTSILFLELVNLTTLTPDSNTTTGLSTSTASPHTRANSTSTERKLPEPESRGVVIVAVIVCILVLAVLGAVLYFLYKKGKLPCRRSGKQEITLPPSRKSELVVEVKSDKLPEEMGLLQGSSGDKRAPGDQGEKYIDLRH

[2] = target: T2, MCAM treated with O-glycanase (human (endogenous in A375)) (UniProt P43121); assay: co-IP; A375 cells incubated with galectin-3 (5 µg/mL) in serum-free medium 2 h at 37 °C, lysed in 1% Triton X-100 in PBS; anti-MCAM antibody or control immunoglobulin, protein A/G beads; beads incubated with PBS, N-glycanase PNGaseF (5U) or O-glycanase (10 mU) overnight at 37 °C, washed; galectin-3 immunoblot; only the binder purified
T2 sequence (chain, unsubstituted Galβ1,3GalNAc-α-O- glycans cleaved by O-glycanase): T1 sequence (chain, N- and O-linked glycans (sites not told for this experiment))

[3] = target: T1, Melanoma cell adhesion molecule (MCAM, CD146, MUC18) (human (endogenous in A375 and 92.1)); assay: as above
[4] = target: T3, MCAM treated with N-glycanase PNGaseF (human (endogenous in A375)) (UniProt P43121); assay: as above
T3 sequence (chain, N-linked glycans removed by PNGaseF): T1 sequence (chain, N- and O-linked glycans (sites not told for this experiment))

[5] = target: T1, Melanoma cell adhesion molecule (MCAM, CD146, MUC18) (human (endogenous in A375 and 92.1)); assay: co-IP; A375 or 92.1 cells lysed in RIPA buffer (150 mM NaCl, 50 mM Tris-HCl, 1% NP40, pH 7.4); anti-MCAM antibody or mouse immunoglobulin, protein A/G agarose, 4 °C; galectin-3 immunoblot

## Melanoma cell adhesion molecule (MCAM, CD146, MUC18) (from UniProt P43121 24-646) (receptor)
[1]
  binding: binds

## Recombinant full-length human galectin-3 (from UniProt P17931 1-250) (ligand)
[2]
  binding: binds weakly
[3]
  binding: binds
[4]
  binding: binds

## Galectin-3 (endogenous, melanoma cells) (from UniProt P17931 1-250)
[5]
  binding: binds
